# Laboratory results taken from US11945832B2, “Psilocybin and O-acetylpsilocin, salts and solid state forms thereof” (Terran Biosciences Inc., priority 2021, dated 2024).
# For at least one compound, name, drawing or mass did not settle the structure.
# Test system: Psilocybin Induced Head Twitches in Mice
# Assay: Psilocybin-induced head-twitch response in mice, 5-HT2A antagonist given i.v. after psilocybin
# Type: in vivo, C57BL/6J mice
# From the text: The head-shake response is elicited by a wide variety of known hallucinogens such as LSD, psilocybin, psilocin, N,N-dimethyltryptamine (DMT), and mescaline as well as serotonin-releasing agents and direct 5-HT2 agonists. […] Later studies have confirmed 5-HT2A receptors are the primary, direct mediators of the response and that the headshake response in rats is essentially the same as head-twitches in mice, at least in regards to similarity in appearance and 5-HT2A receptor dependence.
# Male C57BL/6J mice (approximately 25 g) were group housed. Animals were maintained under a 12 h light/dark cycle, at 23° C. with humidity controlled.
# Psilocybin was formulated in saline at a concentration of 0.4 mg/mL to give a dose of 2 mg/kg when administered i.p. in a 5 mL/kg dosing volume.
# At T=−60 min, C57BL/6J mice were individually housed into transparent observation cages with bedding removed and left to habituate. At T=−3 min, mice were placed into heated cages at 40° C. At T=0 h, groups of 3 mice were dosed intraperitoneally with psilocybin (2 mg/kg). Following dosing, mice were replaced into the heated cages and head-twitch responses continuously scored for 7 min. […] Mice were replaced into the observation cages and head twitch behavior were monitored until 40 min after agonist dosing. Cumulative head-twitches were measured every 2 minutes until 40 minutes after agonist dosing.
# At T=−60 min, C57BL/6J mice were individually housed into transparent observation cages with bedding removed and left to habituate. […] Following dosing, mice were replaced into the heated cages and head-twitch responses continuously scored for 7 min. […] Mice were replaced into the observation cages and head twitch behavior was monitored until 40 min after agonist dosing. Cumulative head-twitch behavior was measured every 2 minutes until 40 minutes after agonist dosing.
# At T=−60 min, C57BL/6J mice were individually housed into transparent observation cages with bedding removed and left to habituate. […] Following dosing, mice were replaced into the heated cages and head-twitch responses continuously scored for 7 min. […]
compound,measurement,setting,value
CN(C)CCO/N=C(/C=C/c1ccc(O)cc1)c1ccccc1F [eplivanserin],Result (suppression of psilocybin-induced head twitch),"C57BL/6J mice, psilocybin 2 mg/kg i.p. at T=0, 5HT2A antagonist i.v. at T=7 min, head twitches scored to 40 min, summary of Examples 13-21",Full suppression of head twitch
same,effect on psilocybin-induced head twitch (summary of Examples 13-21),"administered after psilocybin, compared to vehicle-treated mice, dose not given",full ending
same,suppression of psilocybin-induced head-twitch response,"antagonist 1 mg/kg i.v. 7 min after psilocybin 2 mg/kg i.p., monitored until 40 min",completely suppressed
